The supplement of paper PMC10849652
The list shows a part of the results.

The chains behind the UniProt entries cited, without tags or fusion partners. Where a name states a change or a piece, a line headed by the entry shows the natural chain unless it says otherwise.
UniProt O14964, whole entry, looked up: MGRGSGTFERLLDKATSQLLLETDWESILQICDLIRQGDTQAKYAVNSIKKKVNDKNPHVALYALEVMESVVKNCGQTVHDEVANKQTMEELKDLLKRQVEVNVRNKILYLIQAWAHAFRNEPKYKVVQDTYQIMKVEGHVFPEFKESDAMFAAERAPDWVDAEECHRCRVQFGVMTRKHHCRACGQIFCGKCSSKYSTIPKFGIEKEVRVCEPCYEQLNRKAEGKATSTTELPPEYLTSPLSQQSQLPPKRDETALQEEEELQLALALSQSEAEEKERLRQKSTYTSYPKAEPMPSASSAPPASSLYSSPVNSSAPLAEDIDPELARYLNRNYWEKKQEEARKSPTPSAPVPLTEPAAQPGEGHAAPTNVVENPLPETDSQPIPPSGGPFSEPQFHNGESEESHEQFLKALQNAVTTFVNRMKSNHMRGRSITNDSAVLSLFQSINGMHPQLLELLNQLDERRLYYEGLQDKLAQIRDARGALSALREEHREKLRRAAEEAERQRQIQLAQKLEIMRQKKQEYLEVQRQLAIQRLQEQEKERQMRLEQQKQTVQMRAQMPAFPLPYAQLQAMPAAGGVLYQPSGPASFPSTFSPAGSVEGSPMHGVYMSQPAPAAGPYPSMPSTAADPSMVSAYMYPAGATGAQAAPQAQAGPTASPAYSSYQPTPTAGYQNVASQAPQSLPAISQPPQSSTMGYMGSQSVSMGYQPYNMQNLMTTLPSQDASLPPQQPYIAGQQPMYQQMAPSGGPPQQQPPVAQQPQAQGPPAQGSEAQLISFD
UniProt P08397: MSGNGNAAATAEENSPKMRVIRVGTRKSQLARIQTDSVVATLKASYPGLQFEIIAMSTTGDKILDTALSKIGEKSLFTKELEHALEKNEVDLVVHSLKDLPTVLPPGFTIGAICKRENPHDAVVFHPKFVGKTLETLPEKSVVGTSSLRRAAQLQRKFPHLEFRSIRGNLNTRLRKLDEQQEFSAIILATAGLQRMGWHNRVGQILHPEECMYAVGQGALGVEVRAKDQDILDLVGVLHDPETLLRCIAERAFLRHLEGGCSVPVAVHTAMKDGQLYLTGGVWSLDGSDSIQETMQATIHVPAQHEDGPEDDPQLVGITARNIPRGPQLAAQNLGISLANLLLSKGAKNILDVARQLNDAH
UniProt Q6YN16: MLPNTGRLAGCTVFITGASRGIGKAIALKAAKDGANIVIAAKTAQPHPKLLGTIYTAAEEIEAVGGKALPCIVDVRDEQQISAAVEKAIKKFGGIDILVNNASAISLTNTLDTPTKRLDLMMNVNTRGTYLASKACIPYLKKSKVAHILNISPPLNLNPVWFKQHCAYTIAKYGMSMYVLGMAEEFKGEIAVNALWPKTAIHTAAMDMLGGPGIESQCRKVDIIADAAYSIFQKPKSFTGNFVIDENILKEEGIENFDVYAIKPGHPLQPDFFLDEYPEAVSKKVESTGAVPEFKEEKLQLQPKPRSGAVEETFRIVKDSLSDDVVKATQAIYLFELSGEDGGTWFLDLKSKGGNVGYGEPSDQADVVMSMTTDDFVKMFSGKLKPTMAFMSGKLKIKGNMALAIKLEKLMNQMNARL
UniProt P14866: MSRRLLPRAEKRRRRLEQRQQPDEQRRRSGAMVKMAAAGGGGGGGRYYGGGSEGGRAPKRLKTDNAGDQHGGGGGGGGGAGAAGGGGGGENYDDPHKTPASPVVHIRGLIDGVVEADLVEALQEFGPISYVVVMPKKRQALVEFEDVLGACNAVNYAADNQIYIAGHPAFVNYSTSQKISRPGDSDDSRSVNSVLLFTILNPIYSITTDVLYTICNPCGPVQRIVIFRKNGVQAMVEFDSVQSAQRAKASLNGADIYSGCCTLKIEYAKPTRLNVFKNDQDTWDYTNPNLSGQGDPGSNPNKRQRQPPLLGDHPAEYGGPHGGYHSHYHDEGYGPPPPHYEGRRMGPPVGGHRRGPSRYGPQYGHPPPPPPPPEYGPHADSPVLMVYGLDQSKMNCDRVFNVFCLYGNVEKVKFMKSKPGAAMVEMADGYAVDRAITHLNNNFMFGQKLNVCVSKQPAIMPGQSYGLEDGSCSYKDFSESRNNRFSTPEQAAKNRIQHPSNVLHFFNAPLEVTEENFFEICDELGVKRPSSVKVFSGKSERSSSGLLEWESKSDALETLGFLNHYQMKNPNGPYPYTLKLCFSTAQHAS
UniProt P51991: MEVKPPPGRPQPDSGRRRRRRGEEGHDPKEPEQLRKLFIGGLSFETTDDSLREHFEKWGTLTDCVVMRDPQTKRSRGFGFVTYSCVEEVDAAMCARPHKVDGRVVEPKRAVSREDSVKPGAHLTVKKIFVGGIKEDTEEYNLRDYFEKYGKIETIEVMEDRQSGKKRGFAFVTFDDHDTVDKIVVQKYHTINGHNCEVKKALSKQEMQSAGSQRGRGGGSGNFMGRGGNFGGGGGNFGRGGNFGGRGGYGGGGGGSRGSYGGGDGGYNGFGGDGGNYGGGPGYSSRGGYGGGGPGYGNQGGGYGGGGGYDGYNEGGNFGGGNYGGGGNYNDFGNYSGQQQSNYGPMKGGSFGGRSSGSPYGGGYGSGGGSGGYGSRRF
UniProt O14979: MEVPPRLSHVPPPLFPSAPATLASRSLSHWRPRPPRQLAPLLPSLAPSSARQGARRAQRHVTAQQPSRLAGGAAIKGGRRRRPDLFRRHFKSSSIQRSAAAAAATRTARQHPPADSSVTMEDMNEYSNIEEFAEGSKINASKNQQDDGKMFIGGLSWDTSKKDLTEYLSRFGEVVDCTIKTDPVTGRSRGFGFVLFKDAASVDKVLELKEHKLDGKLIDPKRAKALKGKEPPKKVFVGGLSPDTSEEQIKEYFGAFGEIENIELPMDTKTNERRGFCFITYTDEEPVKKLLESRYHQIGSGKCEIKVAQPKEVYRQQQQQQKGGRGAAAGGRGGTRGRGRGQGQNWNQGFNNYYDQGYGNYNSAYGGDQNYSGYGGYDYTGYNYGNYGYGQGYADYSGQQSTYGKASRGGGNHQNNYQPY
UniProt Q9NZL4: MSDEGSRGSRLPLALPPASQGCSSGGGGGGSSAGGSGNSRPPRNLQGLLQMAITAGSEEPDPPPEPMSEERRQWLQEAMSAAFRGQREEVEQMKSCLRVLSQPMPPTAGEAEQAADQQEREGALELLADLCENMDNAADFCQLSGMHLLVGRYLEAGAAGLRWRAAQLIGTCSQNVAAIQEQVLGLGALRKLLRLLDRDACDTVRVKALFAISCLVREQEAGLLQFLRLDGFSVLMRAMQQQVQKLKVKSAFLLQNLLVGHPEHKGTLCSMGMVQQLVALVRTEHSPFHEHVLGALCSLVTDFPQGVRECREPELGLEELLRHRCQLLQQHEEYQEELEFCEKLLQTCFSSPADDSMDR
UniProt Q9P2D0: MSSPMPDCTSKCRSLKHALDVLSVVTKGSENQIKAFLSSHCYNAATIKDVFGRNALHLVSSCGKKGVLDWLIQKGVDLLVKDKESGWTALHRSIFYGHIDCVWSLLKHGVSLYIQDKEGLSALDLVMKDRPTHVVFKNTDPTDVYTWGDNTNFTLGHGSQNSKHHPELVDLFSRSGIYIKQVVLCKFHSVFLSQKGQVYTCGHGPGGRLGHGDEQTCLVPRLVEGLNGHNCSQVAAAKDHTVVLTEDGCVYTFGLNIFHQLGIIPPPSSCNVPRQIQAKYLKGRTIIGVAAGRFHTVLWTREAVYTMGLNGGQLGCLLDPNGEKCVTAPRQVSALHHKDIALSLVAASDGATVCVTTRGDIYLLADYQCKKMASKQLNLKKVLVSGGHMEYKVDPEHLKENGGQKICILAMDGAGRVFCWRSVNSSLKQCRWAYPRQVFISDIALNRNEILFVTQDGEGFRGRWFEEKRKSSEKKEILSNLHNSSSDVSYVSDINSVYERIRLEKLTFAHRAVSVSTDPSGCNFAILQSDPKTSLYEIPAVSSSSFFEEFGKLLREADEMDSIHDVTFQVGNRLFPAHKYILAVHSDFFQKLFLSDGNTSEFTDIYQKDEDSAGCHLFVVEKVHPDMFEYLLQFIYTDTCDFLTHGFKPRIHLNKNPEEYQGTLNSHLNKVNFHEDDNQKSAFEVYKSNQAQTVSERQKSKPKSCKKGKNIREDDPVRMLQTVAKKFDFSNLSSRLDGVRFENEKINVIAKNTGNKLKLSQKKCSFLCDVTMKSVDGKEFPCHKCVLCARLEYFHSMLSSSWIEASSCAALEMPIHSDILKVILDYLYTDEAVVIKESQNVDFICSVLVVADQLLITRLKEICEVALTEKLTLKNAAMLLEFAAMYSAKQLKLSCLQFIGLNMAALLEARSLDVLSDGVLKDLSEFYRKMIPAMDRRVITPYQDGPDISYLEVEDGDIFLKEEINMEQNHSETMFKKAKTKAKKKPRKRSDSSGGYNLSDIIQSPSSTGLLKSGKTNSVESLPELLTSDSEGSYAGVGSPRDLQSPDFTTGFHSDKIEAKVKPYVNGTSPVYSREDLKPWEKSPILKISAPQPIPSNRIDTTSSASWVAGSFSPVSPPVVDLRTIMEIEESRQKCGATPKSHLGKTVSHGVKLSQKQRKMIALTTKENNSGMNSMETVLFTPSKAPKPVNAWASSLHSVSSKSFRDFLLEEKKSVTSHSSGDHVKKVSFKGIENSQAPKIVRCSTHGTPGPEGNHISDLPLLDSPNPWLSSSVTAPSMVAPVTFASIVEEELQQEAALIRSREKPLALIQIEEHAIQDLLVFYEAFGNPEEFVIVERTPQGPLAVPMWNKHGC
UniProt Q58FF6, whole entry, looked up: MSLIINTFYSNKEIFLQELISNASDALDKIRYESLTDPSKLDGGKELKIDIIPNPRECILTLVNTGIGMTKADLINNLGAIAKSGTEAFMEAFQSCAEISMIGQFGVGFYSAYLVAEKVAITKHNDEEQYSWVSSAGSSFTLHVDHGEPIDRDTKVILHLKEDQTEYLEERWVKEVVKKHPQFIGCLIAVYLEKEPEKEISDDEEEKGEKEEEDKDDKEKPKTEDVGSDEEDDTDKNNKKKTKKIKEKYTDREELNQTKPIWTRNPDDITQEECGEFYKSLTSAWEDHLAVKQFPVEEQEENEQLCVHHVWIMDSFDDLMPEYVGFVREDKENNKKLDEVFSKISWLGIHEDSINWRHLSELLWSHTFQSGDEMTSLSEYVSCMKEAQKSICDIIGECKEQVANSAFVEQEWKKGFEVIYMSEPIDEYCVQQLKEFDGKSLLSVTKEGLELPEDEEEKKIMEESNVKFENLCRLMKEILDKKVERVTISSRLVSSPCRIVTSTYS
UniProt Q14527: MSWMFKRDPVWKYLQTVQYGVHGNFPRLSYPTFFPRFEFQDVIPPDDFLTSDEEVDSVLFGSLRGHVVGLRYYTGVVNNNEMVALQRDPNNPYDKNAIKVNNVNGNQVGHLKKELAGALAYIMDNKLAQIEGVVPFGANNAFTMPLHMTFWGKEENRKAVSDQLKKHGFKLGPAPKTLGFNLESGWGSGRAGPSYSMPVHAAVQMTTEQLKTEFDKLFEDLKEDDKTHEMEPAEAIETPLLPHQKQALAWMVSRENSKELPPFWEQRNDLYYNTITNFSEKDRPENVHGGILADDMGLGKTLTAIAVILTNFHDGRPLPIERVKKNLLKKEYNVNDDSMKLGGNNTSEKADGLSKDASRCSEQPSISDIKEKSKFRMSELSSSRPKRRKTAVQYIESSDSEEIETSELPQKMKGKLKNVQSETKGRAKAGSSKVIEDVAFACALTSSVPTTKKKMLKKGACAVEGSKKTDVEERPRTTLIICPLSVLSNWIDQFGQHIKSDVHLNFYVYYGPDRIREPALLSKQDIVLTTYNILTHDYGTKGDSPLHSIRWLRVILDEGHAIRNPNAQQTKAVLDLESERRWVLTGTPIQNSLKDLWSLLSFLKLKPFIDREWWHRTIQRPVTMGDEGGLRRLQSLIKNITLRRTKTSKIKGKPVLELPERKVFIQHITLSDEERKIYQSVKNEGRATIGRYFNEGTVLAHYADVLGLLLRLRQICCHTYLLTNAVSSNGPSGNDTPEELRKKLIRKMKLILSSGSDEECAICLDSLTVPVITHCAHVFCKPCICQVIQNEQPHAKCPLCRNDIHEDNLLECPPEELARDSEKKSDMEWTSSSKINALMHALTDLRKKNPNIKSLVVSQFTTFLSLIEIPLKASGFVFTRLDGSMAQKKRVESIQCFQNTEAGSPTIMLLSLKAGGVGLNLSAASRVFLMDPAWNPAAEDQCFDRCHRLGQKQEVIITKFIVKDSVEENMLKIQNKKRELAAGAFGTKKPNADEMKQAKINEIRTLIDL
UniProt Q6DN03, whole entry, looked up: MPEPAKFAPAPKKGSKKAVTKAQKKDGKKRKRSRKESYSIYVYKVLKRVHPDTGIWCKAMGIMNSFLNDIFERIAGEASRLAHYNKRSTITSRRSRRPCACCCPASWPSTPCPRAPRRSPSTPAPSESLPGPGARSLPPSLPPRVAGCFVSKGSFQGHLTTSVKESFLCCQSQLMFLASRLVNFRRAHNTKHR
UniProt H0YH80: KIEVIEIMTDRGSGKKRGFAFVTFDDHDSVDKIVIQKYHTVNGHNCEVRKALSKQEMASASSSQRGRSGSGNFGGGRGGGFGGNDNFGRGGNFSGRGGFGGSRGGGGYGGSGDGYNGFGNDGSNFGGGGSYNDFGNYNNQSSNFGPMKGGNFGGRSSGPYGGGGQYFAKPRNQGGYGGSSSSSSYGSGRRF

Tests used:
Experiment in all cases: log2 fold change, soluble protein after heating vs DMSO (PISA); higher = thermal stabilisation; K562 cells, 10 uM, 30 min; active = over 0.2 and 3.5 SD of the protein, either way, in both replicates (recomputed)
[1] = compound: COC1=CC=C(C=C1)CN2C=CC3=C2C=C(C=C3)C(=O)NO
Method in brief: (§1)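 Thermal stability values are relative to control samples and come from duplicates. They are expressed as log2 fold changes. For measurement, K562 cells (2×10^6 cells/mL) received 10 μM compound for 30 min, and aliquots were heated for 3 min over 48°C-58°C, pooled, and extracted at 4°C in PBS with 0.5% NP-40. Soluble protein, the supernatant after 21,000xg for 90 min, was quantified by TMTpro 16plex LC-MS/MS with equalised channel sums.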

[2] = compound: CON(C)C(=O)N1N=C(c2cc(F)ccc2F)S[C@@]1(CCCN)c1ccccc1 [filanesib]
Method in brief: as §1

[3] = compound: CO[C@H]1C[C@@H]2CC[C@@H](C)[C@@](O)(O2)C(=O)C(=O)N2CCCC[C@H]2C(=O)O[C@H]([C@H](C)C[C@@H]2CC[C@H](n3cnnn3)[C@H](OC)C2)CC(=O)[C@H](C)/C=C(\C)[C@@H](O)[C@@H](OC)C(=O)[C@H](C)C[C@H](C)/C=C/C=C/C=C/1C [zotarolimus]
Method in brief: as §1

[4] = compound: COc1cc(C(=O)O)ccc1NC(=O)[C@@H]1N[C@@H](CC(C)(C)C)[C@](C#N)(c2ccc(Cl)cc2F)[C@H]1c1cccc(Cl)c1F [idasanutlin]
Method in brief: as §1

[5] = compound: COc1cc(Nc2ncc3c(n2)-c2ccc(Cl)cc2C(c2c(F)cccc2OC)=NC3)ccc1C(=O)O [alisertib]
Method in brief: as §1

[6] = compound: COc1cc2nc(-c3cc(F)ccc3O)nc(N[C@@H]3CNC[C@H]3C(C)(C)O)c2cc1OC
Method in brief: as §1

[7] = compound: COc1cc2ncnc(Nc3ccc(F)c(Cl)c3)c2cc1OCCCN1CCOCC1 [gefitinib]
Method in brief: as §1

[8] = compound: COc1cccc2cc(-c3nc([C@H]4CC[C@H](C(=O)O)CC4)n4ncnc(N)c34)[nH]c12
Method in brief: as §1

[9] = compound: CS(=O)(=O)CCNCc1ccc(-c2ccc3ncnc(Nc4ccc(OCc5cccc(F)c5)c(Cl)c4)c3c2)o1 [lapatinib]
Method in brief: as §1

[10] = compound: CS(=O)(=O)N1CCN(Cc2cc3nc(-c4cccc5[nH]ncc45)nc(N4CCOCC4)c3s2)CC1 [pictilisib]
Method in brief: as §1

Measured: log2 fold change

ICAM4 (UniProt Q14773)
inactive: [1] -0.078 | [2] 0.02 | [3] 0.018 | [4] -0.011 | [5] -0.112 | [6] -0.044 | [7] 0.004 | [8] 0.013 | [9] 0.044 | [10] 0.146

HGS (UniProt O14964)
inactive: [1] 0.03 | [2] -0.086 | [3] 0.038 | [4] -0.032 | [5] -0.062 | [6] 0.027 | [7] 0.032 | [8] -0.015 | [9] -0.016 | [10] 0.036

HMBS (UniProt P08397)
inactive: [1] 0.088 | [2] -0.045 | [3] -0.004 | [4] -0.013 | [5] -0.087 | [6] 0.007 | [7] -0.016 | [8] 0.057 | [9] -0.016 | [10] 0.001

ICAM2 (UniProt P13598)
inactive: [1] 0.012 | [2] 0.026 | [3] -0.012 | [4] 0.094 | [5] -0.056 | [6] -0.069 | [7] 0.019 | [8] 0.038 | [9] -0.024 | [10] 0.028

HSDL2 (UniProt Q6YN16)
inactive: [1] 0.02 | [2] -0.104 | [3] 0.022 | [4] -0.19 | [5] -0.024 | [6] -0.03 | [7] 0.047 | [8] 0.02 | [9] 0.043 | [10] 0.01

HS1BP3 (UniProt Q53T59)
inactive: [1] 0.032 | [2] -0.085 | [3] 0.02 | [4] 0.039 | [6] 0.087 | [7] -0.196 | [9] 0.118

HNRNPA1 (UniProt P09651)
inactive: [1] -0.095 | [2] 0.34 | [3] -0.082 | [4] 0.224 | [5] -0.095 | [6] 0.02 | [7] -0.055 | [8] -0.118 | [9] 0.028 | [10] -0.018

HK1 isoform 2 (UniProt P19367)
inactive: [1] 0.041 | [2] -0.044 | [3] -0.021 | [4] -0.01 | [5] -0.021 | [6] 0.026 | [7] 0.016 | [8] 0.052 | [9] -0.074 | [10] -0.033

HUWE1, A0A087X1S3
inactive: [1] 0.022 | [2] 0.096 | [3] 0.031 | [10] -0.099

HNRNPL (UniProt P14866)
inactive: [1] -0.17 | [2] 0.15 | [3] -0.011 | [4] 0.522 | [5] 0.022 | [6] -0.14 | [8] 0.042 | [9] 0.156 | [10] -0.119

HNRNPUL1 (UniProt M0R247)
inactive: [1] -0.028 | [2] 0.029 | [3] -0.468 | [4] 0.277 | [6] 0.117 | [7] 0.1 | [9] -0.15

HNRNPA3 (UniProt P51991)
inactive: [1] -0.129 | [2] 0.422 | [3] -0.115 | [4] 0.35 | [5] -0.083 | [6] -0.005 | [7] -0.064 | [8] -0.142 | [9] 0.054 | [10] -0.408

HSD17B7 (UniProt P56937)
inactive: [1] 0.074 | [2] -0.114 | [3] 0.034 | [4] -0.111 | [5] -0.118 | [6] -0.024 | [7] 0.01 | [8] 0.092 | [9] 0.128 | [10] 0.045

HMBS (UniProt F5H226)
inactive: [1] -0.04 | [2] 0.075 | [3] -0.138 | [5] 0.844 | [8] -0.005 | [10] 0.048

Copied from the entries so far (2 entries):
HNRNPA3 (UniProt P51991)
inactive: [1] -0.129 | [2] 0.422 | [3] -0.115 | [4] 0.35 | [5] -0.083 | [6] -0.005 | [7] -0.064 | [8] -0.142 | [9] 0.054 | [10] -0.408

HSD17B7 (UniProt P56937)
inactive: [1] 0.074 | [2] -0.114 | [3] 0.034 | [4] -0.111 | [5] -0.118 | [6] -0.024 | [7] 0.01 | [8] 0.092 | [9] 0.128 | [10] 0.045

Following part:

HSPA8 (UniProt E9PN89)
inactive: [1] -0.312 | [2] 0.126 | [3] -0.036 | [4] 0.113 | [5] 0.042 | [6] 0.191 | [7] 0.035 | [8] 0.126 | [9] -0.426 | [10] 0.134

HNRNPDL (UniProt O14979)
inactive: [1] -0.089 | [2] 0.227 | [3] -0.049 | [4] 0.128 | [5] -0.07 | [6] 0.032 | [7] -0.034 | [8] -0.084 | [9] 0.044 | [10] -0.032

HNRNPUL2 (UniProt Q1KMD3)
inactive: [1] -0.012 | [2] 0.156 | [3] -0.015 | [4] 0.083 | [5] -0.026 | [6] 0.105 | [7] -0.02 | [8] 0.005 | [9] -0.018 | [10] 0.035

HSPBP1 isoform 3 (UniProt Q9NZL4)
inactive: [1] 0.033 | [2] -0.032 | [3] 0.033 | [4] -0.098 | [5] -0.082 | [6] -0.038 | [7] -0.001 | [8] -0.039 | [9] 0.037 | [10] -0.004

HUS1 (UniProt O60921)
inactive: [1] -0.041 | [2] -0.062 | [3] 0.015 | [4] -0.089 | [5] 0.015 | [6] 0.008 | [7] 0.013 | [8] 0.001 | [9] 0.001 | [10] 0.111

IBTK (UniProt Q9P2D0)
inactive: [1] -0.012 | [2] 0.357 | [3] -0.028 | [4] 0.289 | [6] 0.042 | [7] 0.073 | [9] -0.026 | [10] -0.126

HSP90AB4P (UniProt Q58FF6)
inactive: [1] -0.124 | [2] -0.004 | [3] 0.094 | [4] -0.398 | [5] 0.099 | [7] 0.051 | [8] -0.001

HLTF (UniProt Q14527)
active: [7] 0.334
inactive: [1] -0.027 | [2] -0.004 | [3] -0.042 | [4] -0.049 | [5] 0.008 | [6] 0.081 | [8] -0.126 | [9] 0.013 | [10] 0.007

HIST2H2BC (UniProt Q6DN03)
inactive: [1] -0.004 | [2] 0.374 | [4] 0.554 | [5] 0.092 | [6] -0.2 | [7] 0.019 | [8] -0.383 | [9] 0.135 | [10] -0.092

HNRNPA1 (UniProt H0YH80)
inactive: [1] -0.035 | [2] 0.526 | [3] -0.143 | [4] 0.032 | [5] -0.288 | [7] -0.016 | [8] -0.125 | [10] -0.122
